# Test results published in PubChem BioAssay AID493014 (National Center for Advancing Translational Sciences (NCATS), 2011).
# Screen size: about 340,000 compounds; about 170 (0.05%) were called active. The inconclusive results got no clear call from the source; some entries with a clear call stand among them for comparison. The call rests on the fitted dose curve; in most records, active means well fitted inhibition curve with a large enough effect in the signal ratio, with a control signal flat (not every such curve was filed as active); inconclusive means small, poorly fitted or top-dose-only effect, or effect the other way, or a change in a side signal; inactive means flat fitted curve, though single readings scatter; the % refers to the signal ratio. Potencies of inconclusive entries are doubtful fits and often do not repeat.
# Assay: qHTS Assay to Find Inhibitors of Chronic Active B-Cell Receptor Signaling;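 on activity change, negative = inhibition: plate controls were basal doxycycline-induced cells for no effect and cells given 10 µM MG132 for full effect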
# Conditions: ABC-DLBCL IkBa-CBG/CBR reporter, luminescence ratio (green luciferase fused to IkBa over red control in TMD8 lymphoma cells), 4 h; activity change, negative = inhibition: at 46.1 µM (top of the series) unless noted
# Summary of the method: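 TMD8 human ABC-DLBCL cells with doxycycline-inducible IκBα–green luciferase fusion and unfused red luciferase, in 0.5% FBS medium; compounds up to 46 uM, 4 h at 37C. Green/red luminescence ratio, filter-overlap corrected, fitted to concentration-response curves.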
# Potency means the concentration at half of the fitted maximal effect.
SMILES,Potency,"activity change, negative = inhibition"
CCc1ccc(-c2nc(CSCC(=O)N3CCN(c4ccccn4)CC3)c(C)o2)cc1,"inconclusive: 35.5 µM [falling, partial curve, poor fit]",–
CCS(=O)(=O)N1CCC2(CC1)OCCN2S(=O)(=O)c1ccc(OC)cc1,–,inconclusive: 4.56%
COC(=O)c1nn(-c2ccccc2)c(-c2ccccc2)c1C(=O)c1ccccc1,–,inconclusive: 22.2%
COC(=O)C(CC(C)C)NC(=O)/C=C/c1ccccc1Cl (stereo unspecified),–,inconclusive: 0.594%
O=S1(=O)CCOC[C@H](CC2CCCCC2)N1Cc1ccccc1Br,–,inactive: 17.1%
O=C(Nc1cc(C(F)(F)F)ccc1N1CCOCC1)c1cn2ccccc2n1,"inconclusive: 2.91 µM [falling, partial curve]",–
CCC(=O)c1ccc(OCCSc2ncccn2)cc1,–,inconclusive: -2.61%
CCOc1ccc2c(c1)C(C)=CC(C)(C)N2S(=O)(=O)c1ccc(F)cc1,"inconclusive: 35.5 µM [falling, single point]",–
O=C(Cc1ccc(-n2c(=O)[nH]c3ccccc3c2=O)cc1)N1CCN(c2cccc(Cl)c2)CC1,–,inconclusive: -10.1%
CCOc1ccc(NC(=O)CN2C(=O)S/C(=C/c3cccn3C)C2=O)cc1,–,inconclusive: -0.154%
Cc1cc(C)n2ncc(C(=O)NCc3cccnc3)c2n1,"inconclusive: 29.1 µM [falling, single point]",–
Cc1nnc(NC(=O)c2ccc(S(=O)(=O)N(C)c3ccccc3)cc2)s1,–,inactive: 5.79%
C=CCn1c(N2CCN(c3ccc(OC)cc3)CC2)nc2c1c(=O)n(C)c(=O)n2C,–,inconclusive: 23.1%
COc1cc(OC)c2c(c1O)OC(c1ccccc1)CC2=O (stereo unspecified),–,inconclusive: -1.82%
Cc1ccccc1OCCOC(=O)c1c(-c2ccccc2)noc1C,–,inconclusive: -3.48%
CC(=O)Nc1ccc2nc(C3CCCCC3)[nH]c2c1,"inconclusive: 22.4 µM [falling, single point]",–
O=C(Nc1nccs1)c1cccc2ccccc12,–,inconclusive: 3.64%
O=C(Nc1cccc(Cl)c1N1CCCC1)c1cc2ccccc2o1,–,inconclusive: 10.6%
Cc1nn(-c2ccc([N+](=O)[O-])cc2)c2c1C(c1cccc(Br)c1)N1C(=N2)C(=O)Nc2ccccc21 (stereo unspecified),–,inconclusive: 17.2%
O=C(Nc1ccccc1)/C(=C\c1ccc2c(c1)OCO2)NC(=O)c1ccco1,–,inactive: -8.68%
N/C(Cc1ccc(Cl)cc1Cl)=N\OC(=O)Cc1ccccc1,–,inconclusive: 22.8%
Cc1ccc(S(=O)(=O)N2CCC(N3CCC(C)CC3)CC2)cc1,–,inactive: -0.0049%
CCOC(=O)N1CCc2c(sc(NCc3ccc(OCC)cc3)c2C(=O)Nc2ccc(OC)cc2OC)C1,"inconclusive: 12.6 µM [falling, single point]",–
Cc1ccc(-c2noc(CSc3nc(N)cc(N)n3)n2)cc1,–,inconclusive: 17.7%
C=C(C)CN(CC)C(=O)CSc1ccc(S(=O)(=O)N2CCN(C)CC2)cn1,–,inactive: -1.69%
CC(=O)Nc1nonc1NC(=O)CSc1nc2ccccc2o1,"inconclusive: 35.5 µM [rising, single point]",–

# Single records, from the list above.
# Cc1cc(C)n2ncc(C(=O)NCc3cccnc3)c2n1 is listed with Potency: inconclusive: 29.1 µM [falling, single point]
# C=C(C)CN(CC)C(=O)CSc1ccc(S(=O)(=O)N2CCN(C)CC2)cn1 is listed with activity change, negative = inhibition: inactive: -1.69%
# CC(=O)Nc1ccc2nc(C3CCCCC3)[nH]c2c1 is listed with Potency: inconclusive: 22.4 µM [falling, single point]
# COC(=O)c1nn(-c2ccccc2)c(-c2ccccc2)c1C(=O)c1ccccc1 is listed with activity change, negative = inhibition: inconclusive: 22.2%

# (list continues)

SMILES,Potency,"activity change, negative = inhibition"
CC[C@H](C)C(C(=O)N1CCN(C(=O)OC(C)(C)C)CC1)n1cc(C(CO)NC(=O)OC(C)(C)C)nn1 (stereo partly specified),–,inactive: 0.169%
Cc1ccc(Nc2c([N+](=O)[O-])c(=O)oc3ccccc23)cc1,–,inactive: 8.83%
C#CCn1cc(/C=N/Nc2nc3ccccc3[nH]2)c2ccccc21,"inconclusive: 23.1 µM [falling, single point]",–
COC(=O)c1ccc(Cl)c(NC(=O)CN(c2ccccc2)S(=O)(=O)c2ccc(OC)cc2)c1,"inconclusive: 6.51 µM [rising, partial curve]",–
CC(C)c1ccc(NC(=O)c2cccc(NC3=NC4CS(=O)(=O)CC4S3)c2)cc1 (stereo unspecified),"inconclusive: 3.98 µM [falling, partial curve, poor fit]",–
Cc1ccc(C(=O)Nc2scc(-c3ccccc3)c2C(=O)O)o1,"inconclusive: 35.5 µM [falling, single point]",–
COc1ccc(CCN(C)CC(O)COC(c2ccc(F)cc2)c2ccc(F)cc2)cc1OC (stereo unspecified),"inconclusive: 35.5 µM [falling, single point]",–
NS(=O)(=O)c1ccc(CNC(=O)C2CCCCC2)cc1,–,inconclusive: 7.1%
O=C1CC(NNc2nc3ccccc3s2)C(=O)N1c1ccccc1 (stereo unspecified),"inconclusive: 8.91 µM [falling, partial curve, poor fit]",–
O=C(COc1ccccc1-c1ccccc1)N/N=C/c1cccnc1,"inconclusive: 12.6 µM [falling, partial curve]",–
COc1ccc(C(=O)NNC(=O)Nc2ccc(Cl)cc2)cc1,"inconclusive: 17.8 µM [falling, single point]",–
c1ccc(OCCSc2nc3ccccc3o2)cc1,–,inconclusive: 9.28%
CC(/C=N/N1CCN(Cc2ccccc2)CC1)=C\c1ccccc1,–,inconclusive: 5.71%
COc1ccc(NS(=O)(=O)c2cccs2)cc1S(=O)(=O)N1CCCCC1,–,inconclusive: 15%
Cc1cccc(S(=O)(=O)Nc2nc3ccccc3nc2Nc2ccc3c(c2)OCO3)c1,–,inactive: 3.09%
O=C(Nc1ccc(N2CCCC2)cc1)c1cc(Cl)ccc1Cl,"inconclusive: 11.2 µM [falling, partial curve, poor fit]",–
COc1ccc(C(C)(C)C)cc1NC(=O)c1cc(S(=O)(=O)N(C)C)ccc1N1CCCC1,"inconclusive: 25.9 µM [falling, partial curve, poor fit]",–
CCOC(=O)c1cc2cc(OC)ccc2[nH]1,–,inactive: -10%
O=C(NCC1CCCO1)C(c1ccc(F)cc1)N(C(=O)Cn1nnc(-c2ccc(F)cc2)n1)c1cccc(O)c1 (stereo unspecified),–,inactive: -1.6%
COc1ccc(NC(=O)c2ccccc2[N+](=O)[O-])cc1OC,"inconclusive: 18.4 µM [falling, partial curve, poor fit]",–
CC(/C=N/NC(=O)c1cccs1)=C\c1ccccc1,"inconclusive: 31.6 µM [rising, single point]",–
Cc1ccc(N2NC(=O)/C(=C\c3cc4c(cc3[N+](=O)[O-])OCO4)C2=O)cc1C,–,inconclusive: -0.844%
CCOC(=O)c1sc(NC(C)=O)nc1-c1ccccc1,–,inconclusive: 0.237%
CN1C/C(=C/c2ccsc2)C(=O)/C(=C/c2ccsc2)C1,"inconclusive: 7.31 µM [falling, partial curve]",–
Cc1nc(-c2ccc(NC(=O)c3ccccc3Br)cc2)cs1,"inconclusive: 29.1 µM [falling, single point]",–
CCOc1ccc(N=Nc2c(N)[nH][nH]c2=O)cc1,–,inconclusive: 2.15%

SMILES,Potency,"activity change, negative = inhibition"
CN(C)/N=C/C=C1\CCC/C(=C\c2ccc(F)c(F)c2)C1=O,–,inactive: -26.5%
CCN(CC)C(=O)c1sc2nc(-c3cccs3)cc(-c3cccs3)c2c1N,"inconclusive: 22.4 µM [rising, partial curve, poor fit]",–
O=C(CCCc1ccccc1)NCCC1=CCCCC1,–,inactive: 11.6%
CC(C)(C)c1ccc(C(=O)NNC(=O)Cc2cccc3ccccc23)cc1,"inconclusive: 8.2 µM [falling, partial curve, poor fit]",–
COc1ccc2[nH]c(C(=O)O)c(NC(=O)c3cc(OC)c(OC)c(OC)c3)c2c1,–,inconclusive: 4.08%
COc1cc2c(cc1OC)CN(C(=O)c1ccc([N+](=O)[O-])o1)CC2,–,inconclusive: -2.44%
CCc1ccc(C(=O)N/N=C(\C)c2ccncc2)s1,–,inconclusive: -10.1%
CCOc1ccc(OCCC(=O)OCC(=O)N2CCN(S(=O)(=O)c3ccc(C)cc3)CC2)cc1,–,inconclusive: 3.86%
COc1cc2c(c(OC)c1OC)-c1ccc(OC)c(=O)cc1[C@@H](N(C)CC#CCO)CC2,"inconclusive: 0.794 µM [falling, full curve]",–
CCOc1ccc(NC(=O)N(CCC(C)C)C2CCN(C(C)=O)CC2)cc1,"inconclusive: 29.1 µM [falling, single point]",–
N#Cc1cc(C#N)c(SCC(=O)N2CC(=O)Nc3ccccc32)nc1N,–,inactive: -6.32%
O=C(COc1ccccc1C(=O)NCc1ccncc1)Nc1ccc(Br)cc1,"inconclusive: 35.5 µM [falling, single point]",–
Cc1ccnc(NC(=O)c2ccccc2NC(=O)c2ccccc2)c1,–,inconclusive: -2.77%
Cc1ccsc1/C=N/Nc1ccc(F)cc1F,–,inconclusive: 6.11%
CN(c1ccccc1)S(=O)(=O)c1cccc(NC(=O)c2ccc3ncsc3c2)c1,"inconclusive: 22.4 µM [falling, partial curve]",–
N#Cc1ccccc1OCC(=O)N1CCN(C(=O)c2ccco2)CC1,–,inconclusive: -15.7%
Cn1c(=O)c2c(nc(N/N=C/c3ccncc3)n2Cc2ccccc2)n(C)c1=O,–,inconclusive: -0.805%
CC1CN(c2nn3c(=O)c4ccccc4nc3c3ccccc23)CC(C)O1 (stereo unspecified),–,inconclusive: 17.2%
COc1cccc(/C=C/C(=O)OCC(=O)c2ccc3c(c2)NC(=O)CO3)c1,–,inconclusive: -0.287%
CCN1CCN(c2ccc(NC(=O)c3ccc(F)cc3)cc2Cl)CC1,–,inactive: 5.09%
CC(C)c1nnc(NC(=O)C2CCCO2)s1 (stereo unspecified),–,inconclusive: 20.1%
COc1ccc(C(CC(=O)O)NC(=O)c2ccccc2[N+](=O)[O-])cc1 (stereo unspecified),"inconclusive: 15.8 µM [rising, partial curve, poor fit]",–
COc1ccc(N2CCN(C(=O)C34CCC(C)(C(=O)C3)C4(C)C)CC2)cc1 (stereo unspecified),–,inconclusive: -7.49%
O=S(=O)(c1ccccc1)N(CC1CO1)c1ccccc1 (stereo unspecified),–,inactive: 2.01%
